The values that follow come from PMC7791018.

The chains behind the UniProt entries cited, without tags or fusion partners. Residues count along the entry.
UniProt P05067, residues 721-770: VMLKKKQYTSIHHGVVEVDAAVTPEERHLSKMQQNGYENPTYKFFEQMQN
UniProt O09106: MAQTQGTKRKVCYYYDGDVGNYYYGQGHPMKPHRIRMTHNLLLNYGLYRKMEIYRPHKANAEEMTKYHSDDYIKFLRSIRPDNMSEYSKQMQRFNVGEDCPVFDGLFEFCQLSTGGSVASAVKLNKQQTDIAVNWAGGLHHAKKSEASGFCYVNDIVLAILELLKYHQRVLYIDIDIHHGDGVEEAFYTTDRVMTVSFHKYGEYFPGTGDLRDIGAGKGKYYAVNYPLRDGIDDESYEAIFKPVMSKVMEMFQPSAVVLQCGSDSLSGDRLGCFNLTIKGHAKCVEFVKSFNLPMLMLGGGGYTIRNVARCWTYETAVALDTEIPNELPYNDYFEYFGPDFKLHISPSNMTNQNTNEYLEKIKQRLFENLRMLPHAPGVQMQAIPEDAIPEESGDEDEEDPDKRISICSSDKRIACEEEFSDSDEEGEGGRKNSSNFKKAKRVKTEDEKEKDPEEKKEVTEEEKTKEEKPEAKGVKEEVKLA
UniProt Q13547: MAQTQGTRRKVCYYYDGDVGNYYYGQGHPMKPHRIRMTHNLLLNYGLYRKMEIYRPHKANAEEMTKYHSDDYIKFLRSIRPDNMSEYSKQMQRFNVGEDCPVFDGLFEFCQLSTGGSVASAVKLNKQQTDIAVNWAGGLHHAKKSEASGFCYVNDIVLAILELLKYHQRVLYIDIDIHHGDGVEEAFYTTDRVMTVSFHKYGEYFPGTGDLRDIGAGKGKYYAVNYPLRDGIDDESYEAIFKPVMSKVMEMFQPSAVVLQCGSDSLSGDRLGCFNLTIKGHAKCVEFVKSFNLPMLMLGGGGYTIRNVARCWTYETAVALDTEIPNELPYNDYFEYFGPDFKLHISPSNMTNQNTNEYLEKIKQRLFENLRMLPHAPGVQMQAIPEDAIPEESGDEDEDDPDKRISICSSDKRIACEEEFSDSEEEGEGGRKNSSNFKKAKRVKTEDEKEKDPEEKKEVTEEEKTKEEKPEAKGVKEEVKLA
UniProt Q04207: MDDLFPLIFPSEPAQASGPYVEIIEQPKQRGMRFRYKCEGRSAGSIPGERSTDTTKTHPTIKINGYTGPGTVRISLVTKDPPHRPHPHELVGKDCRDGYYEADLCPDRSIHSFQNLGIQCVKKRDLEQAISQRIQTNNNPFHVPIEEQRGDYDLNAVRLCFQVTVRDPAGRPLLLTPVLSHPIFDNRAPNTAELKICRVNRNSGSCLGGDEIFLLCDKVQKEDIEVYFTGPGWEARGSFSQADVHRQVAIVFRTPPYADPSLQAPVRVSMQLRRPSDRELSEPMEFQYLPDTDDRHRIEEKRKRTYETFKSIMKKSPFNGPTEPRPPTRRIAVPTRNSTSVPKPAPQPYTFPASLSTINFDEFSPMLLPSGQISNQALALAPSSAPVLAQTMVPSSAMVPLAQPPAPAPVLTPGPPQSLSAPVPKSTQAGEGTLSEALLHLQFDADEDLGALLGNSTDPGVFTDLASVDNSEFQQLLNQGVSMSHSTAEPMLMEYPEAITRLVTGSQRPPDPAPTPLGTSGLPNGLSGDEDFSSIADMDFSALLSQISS
UniProt Q7TQN4: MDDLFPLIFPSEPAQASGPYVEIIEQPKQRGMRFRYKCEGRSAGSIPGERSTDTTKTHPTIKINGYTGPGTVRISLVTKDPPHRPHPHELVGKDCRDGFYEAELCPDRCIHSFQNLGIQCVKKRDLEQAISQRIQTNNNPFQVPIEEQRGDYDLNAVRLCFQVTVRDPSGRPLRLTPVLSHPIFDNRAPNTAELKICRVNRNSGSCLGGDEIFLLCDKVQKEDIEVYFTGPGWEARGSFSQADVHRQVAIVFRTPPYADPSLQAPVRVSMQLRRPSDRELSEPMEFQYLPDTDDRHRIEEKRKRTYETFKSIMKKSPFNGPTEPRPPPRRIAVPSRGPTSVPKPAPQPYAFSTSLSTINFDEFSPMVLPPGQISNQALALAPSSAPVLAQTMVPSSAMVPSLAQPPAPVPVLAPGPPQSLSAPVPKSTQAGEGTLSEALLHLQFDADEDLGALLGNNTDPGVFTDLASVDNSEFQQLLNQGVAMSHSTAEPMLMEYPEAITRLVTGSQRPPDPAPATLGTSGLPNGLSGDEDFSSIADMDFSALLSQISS
UniProt Q01147: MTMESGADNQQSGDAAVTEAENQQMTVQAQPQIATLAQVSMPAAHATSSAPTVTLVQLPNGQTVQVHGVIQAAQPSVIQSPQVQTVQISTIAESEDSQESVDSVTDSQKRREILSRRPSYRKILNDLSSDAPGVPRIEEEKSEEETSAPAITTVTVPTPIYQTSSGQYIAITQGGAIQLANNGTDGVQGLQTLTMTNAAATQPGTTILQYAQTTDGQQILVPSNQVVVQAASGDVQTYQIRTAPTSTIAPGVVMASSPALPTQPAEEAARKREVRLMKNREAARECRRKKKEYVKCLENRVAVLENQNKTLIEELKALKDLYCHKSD

In test [1] the target is EGFP-AICD wild-type (AICD50), in HEK293T cells (UniProt P05067). Put plainly: co-IP; HEK293T cells co-transfected with EGFP-tagged AICD plasmids and V5-Fe65 or FLAG-HDAC1 plasmid; lysate 48 h after transfection immunoprecipitated with anti-EGFP antibody and immunoblotted with anti-V5 or anti-FLAG antibody. (A western blot detects proteins with antibodies after separation by electrophoresis.)

Test [2] has as its target HDAC1, endogenous in Neuro2A cells (mouse (endogenous in Neuro2A)) (UniProt O09106). Put plainly: co-IP; Neuro2A cells transfected with control vector, EGFP-AICDWT, EGFP-AICDK43R or EGFP-AICD-SUMO1 plasmid; lysate immunoprecipitated with anti-HDAC1 antibody and immunoblotted with anti-CREB, anti-p65 and anti-HDAC1 antibodies.
The target in test [3] is EGFP-AICD wild-type (AICD50), expressed in the rat hippocampal CA1 area (UniProt P05067). Put plainly: co-IP; EGFP-tagged AICD plasmids transfected into the rat CA1 area (PEI), tissue taken 48 h later; lysate immunoprecipitated with anti-EGFP antibody and immunoblotted with anti-CREB and anti-p65 antibodies.

Results are given in words; binding and its absence hold for the method and conditions named. In cells and extracts the contact can be indirect. Some entries that bind do so weakly or less than the wild type.

Take “FLAG-HDAC1 (from UniProt Q13547 1-482) (enzyme)”: in test [1], the binding result is reported as “binds”.
For the substance “p65, endogenous in Neuro2A cells (from UniProt Q04207 1-549)”, the binding result in test [2] was “binds”.
Take “p65 (a subunit of NF-κB), rat hippocampus (from UniProt Q7TQN4 1-550)”: the binding entry in test [3] is listed as “binds”.
For “CREB, endogenous in Neuro2A cells (from UniProt Q01147 1-327)”, the binding result in test [2] is on record as “binds”.
